Data source: PubChem BioAssay AID1671195 (Yale University, 2021)
Test: 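Knockdowns that increase or decrease uptake of fluorescent LDL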 (primary screen). System: human Huh7 hepatoma cells. Knock-down reagent: siRNA pool against human genes, 18 nM. Timing: about 2 to 2.5 days of knockdown, then 8 h LDL uptake. Conditions: DiI-labelled LDL at 30 µg/ml for 8 h, in lipoprotein-deficient serum medium. Detection: 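Per-cell DiI-LDL intensity by automated imaging; well means scaled to the plate median and given as a robust z-score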. Direction: robust z-score: higher = more LDL uptake after knockdown. Rule for the call: 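Active when two or more replicates show a robust z-score above 2 or below -2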.
The whole screen tested about 22,000 reagents; below is an unselected part. In the full data, about 1,510 (6.9%) are marked active. 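Active includes knockdowns raising or lowering LDL uptake; positive z-scores mean more uptake, negative mean less.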 No sequences are given here.

With knock-down of ARHGAP22 (Rho GTPase activating protein 22), the screen gave robust z-score, replicate 1 = -1.09; robust z-score, replicate 2 = -1.23; robust z-score, replicate 3 = -1.14; inactive.
After knock-down of GZMK (granzyme K), the record shows robust z-score, replicate 1 = 1.46; robust z-score, replicate 2 = 1.27; robust z-score, replicate 3 = 1.68; inactive.
Knock-down of GRIN2D (glutamate ionotropic receptor NMDA type subunit 2D) resulted in: robust z-score, replicate 1 = -0.476; robust z-score, replicate 2 = -0.852; robust z-score, replicate 3 = -0.194; inactive.
Silencing of ACSM4 (acyl-CoA synthetase medium chain family member 4) resulted in: robust z-score, replicate 1 = 5.45; robust z-score, replicate 2 = 6.65; robust z-score, replicate 3 = 5.56; active.
Silencing of SCN9A (sodium voltage-gated channel alpha subunit 9) resulted in: robust z-score, replicate 1 = -0.117; robust z-score, replicate 2 = -0.865; robust z-score, replicate 3 = -0.0659; inactive.
Depletion of ABCA8 (ATP binding cassette subfamily A member 8) came out at: robust z-score, replicate 1 = -0.199; robust z-score, replicate 2 = -0.359; robust z-score, replicate 3 = 0.0494; inactive.
After knock-down of CIZ1 (CDKN1A interacting zinc finger protein 1) the results were robust z-score, replicate 1 = 4.01; robust z-score, replicate 2 = -2.32; robust z-score, replicate 3 = 0.303; inactive.
Knock-down of LOC442748 (retired record) gave: robust z-score, replicate 1 = 0.0111; robust z-score, replicate 2 = -0.338; robust z-score, replicate 3 = -0.0766; inactive.
DRP2 (dystrophin related protein 2) scored robust z-score, replicate 1 = -0.626; robust z-score, replicate 2 = -0.15; robust z-score, replicate 3 = -1.15; inactive.
ARL4A (ARF like GTPase 4A) showed robust z-score, replicate 1 = -0.981; robust z-score, replicate 2 = -1.68; robust z-score, replicate 3 = -1.56; inactive.
After knock-down of OCEL1 (occludin/ELL domain containing 1), the record shows robust z-score, replicate 1 = 0.161; robust z-score, replicate 2 = 0.511; robust z-score, replicate 3 = 0.00517; inactive.
CTXN2 (cortexin 2) showed robust z-score, replicate 1 = 2.22; robust z-score, replicate 2 = 3.31; robust z-score, replicate 3 = 2.56; active.
Silencing of S100A2 (S100 calcium binding protein A2) resulted in: robust z-score, replicate 1 = -1.89; robust z-score, replicate 2 = -1.83; robust z-score, replicate 3 = -1.9; inactive.
Depletion of MYL9 (myosin light chain 9) gave: robust z-score, replicate 1 = 0.179; robust z-score, replicate 2 = -0.0837; robust z-score, replicate 3 = 0.131; inactive.
ZBTB46 (zinc finger and BTB domain containing 46) scored robust z-score, replicate 1 = 2.82; robust z-score, replicate 2 = 2.42; robust z-score, replicate 3 = 2.94; active.
H3C1 (H3 clustered histone 1) gave robust z-score, replicate 1 = 0.0669; robust z-score, replicate 2 = -0.63; robust z-score, replicate 3 = 0.295; inactive.
Depletion of GAK (cyclin G associated kinase) gave: robust z-score, replicate 1 = -1.04; robust z-score, replicate 2 = -1.15; robust z-score, replicate 3 = -1.91; inactive.
For LOC441577 (retired record), the entry reads robust z-score, replicate 1 = -1.05; robust z-score, replicate 2 = -0.39; robust z-score, replicate 3 = -0.639; inactive.
Silencing of LOC387854 (retired record) came out at: robust z-score, replicate 1 = 0.186; robust z-score, replicate 2 = -0.563; robust z-score, replicate 3 = 0.874; inactive.
CPB1 (carboxypeptidase B1) gave robust z-score, replicate 1 = 2.58; robust z-score, replicate 2 = 2.23; robust z-score, replicate 3 = 2.44; active.
After knock-down of BOC (BOC cell adhesion associated, oncogene regulated) the results were robust z-score, replicate 1 = -0.718; robust z-score, replicate 2 = -0.795; robust z-score, replicate 3 = -0.94; inactive.
For EXTL3 (exostosin like glycosyltransferase 3), the values are robust z-score, replicate 1 = -0.837; robust z-score, replicate 2 = -1.04; robust z-score, replicate 3 = -0.773; inactive.
RPS7 (ribosomal protein S7) showed robust z-score, replicate 1 = -1.13; robust z-score, replicate 2 = -1.1; robust z-score, replicate 3 = -0.187; inactive.
CIC (capicua transcriptional repressor) showed robust z-score, replicate 1 = 0.517; robust z-score, replicate 2 = -0.8; robust z-score, replicate 3 = -0.68; inactive.

Entries listed so far whose target name starts with L or l:
LOC442748 (retired record) — robust z-score, replicate 1: 0.0111; robust z-score, replicate 2: -0.338; robust z-score, replicate 3: -0.0766; activity call: inactive
LOC441577 (retired record) — robust z-score, replicate 1: -1.05; robust z-score, replicate 2: -0.39; robust z-score, replicate 3: -0.639; activity call: inactive
LOC387854 (retired record) — robust z-score, replicate 1: 0.186; robust z-score, replicate 2: -0.563; robust z-score, replicate 3: 0.874; activity call: inactive
